PMC4774922
These are yes or no findings as the source states them, for the method shown. In cells and extracts the contact can be indirect. Here binding means that the protein was enriched with, or labelled near, the bait; the list need not be complete. For some of these results: No binding means not detected with the bait. For some of these results: Tags and fused reporters may be left off the sequences shown. Values belong to the binder of their own block, whether it stands above or below them.

The chains behind the UniProt entries cited, without tags or fusion partners. Where a name states a change or a piece, a line headed by the entry shows the natural chain unless it says otherwise.
UniProt Q9HAU5: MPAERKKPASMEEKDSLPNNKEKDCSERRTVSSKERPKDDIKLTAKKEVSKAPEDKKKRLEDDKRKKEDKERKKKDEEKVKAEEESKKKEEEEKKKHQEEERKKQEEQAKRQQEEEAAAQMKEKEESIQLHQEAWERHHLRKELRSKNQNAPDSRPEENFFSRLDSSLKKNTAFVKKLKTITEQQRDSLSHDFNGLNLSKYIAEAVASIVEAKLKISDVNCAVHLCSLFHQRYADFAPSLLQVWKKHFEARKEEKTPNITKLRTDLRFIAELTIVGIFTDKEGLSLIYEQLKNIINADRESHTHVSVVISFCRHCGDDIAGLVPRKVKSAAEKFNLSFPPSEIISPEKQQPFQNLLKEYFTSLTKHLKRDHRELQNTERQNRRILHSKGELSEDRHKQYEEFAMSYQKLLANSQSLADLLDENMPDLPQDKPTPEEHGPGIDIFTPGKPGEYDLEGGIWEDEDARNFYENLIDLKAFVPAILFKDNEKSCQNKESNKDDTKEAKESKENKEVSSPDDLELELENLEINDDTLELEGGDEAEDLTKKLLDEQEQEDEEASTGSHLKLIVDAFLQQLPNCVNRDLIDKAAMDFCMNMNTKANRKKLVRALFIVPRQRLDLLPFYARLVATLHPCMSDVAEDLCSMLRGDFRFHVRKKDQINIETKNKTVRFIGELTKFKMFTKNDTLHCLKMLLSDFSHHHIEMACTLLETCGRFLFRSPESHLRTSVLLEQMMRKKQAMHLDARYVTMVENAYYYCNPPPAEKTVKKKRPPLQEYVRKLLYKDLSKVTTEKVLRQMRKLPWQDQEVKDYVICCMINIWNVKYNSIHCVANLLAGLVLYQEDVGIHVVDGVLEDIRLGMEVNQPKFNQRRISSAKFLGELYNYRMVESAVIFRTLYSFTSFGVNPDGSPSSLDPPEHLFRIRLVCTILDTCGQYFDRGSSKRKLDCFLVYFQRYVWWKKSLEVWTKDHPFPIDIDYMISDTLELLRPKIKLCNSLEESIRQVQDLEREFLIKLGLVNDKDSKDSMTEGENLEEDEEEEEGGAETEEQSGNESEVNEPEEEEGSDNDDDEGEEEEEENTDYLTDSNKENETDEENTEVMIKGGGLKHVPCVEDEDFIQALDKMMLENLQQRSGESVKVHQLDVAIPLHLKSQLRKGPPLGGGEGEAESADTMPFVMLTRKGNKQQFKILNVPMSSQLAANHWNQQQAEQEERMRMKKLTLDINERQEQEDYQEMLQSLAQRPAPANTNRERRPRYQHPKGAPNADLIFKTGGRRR

Tests used:
[1] = biological target: T1, HA-BirA(R118G)-tagged UPF1, RNAi-resistant (UniProt Q92900); experiment: proximity labelling; BioID: HB*-bait transiently expressed in 293T cells at near endogenous levels, 50 μM biotin for 16 hours; biotinylated proteins captured on magnetic streptavidin beads; western blot
T1 sequence: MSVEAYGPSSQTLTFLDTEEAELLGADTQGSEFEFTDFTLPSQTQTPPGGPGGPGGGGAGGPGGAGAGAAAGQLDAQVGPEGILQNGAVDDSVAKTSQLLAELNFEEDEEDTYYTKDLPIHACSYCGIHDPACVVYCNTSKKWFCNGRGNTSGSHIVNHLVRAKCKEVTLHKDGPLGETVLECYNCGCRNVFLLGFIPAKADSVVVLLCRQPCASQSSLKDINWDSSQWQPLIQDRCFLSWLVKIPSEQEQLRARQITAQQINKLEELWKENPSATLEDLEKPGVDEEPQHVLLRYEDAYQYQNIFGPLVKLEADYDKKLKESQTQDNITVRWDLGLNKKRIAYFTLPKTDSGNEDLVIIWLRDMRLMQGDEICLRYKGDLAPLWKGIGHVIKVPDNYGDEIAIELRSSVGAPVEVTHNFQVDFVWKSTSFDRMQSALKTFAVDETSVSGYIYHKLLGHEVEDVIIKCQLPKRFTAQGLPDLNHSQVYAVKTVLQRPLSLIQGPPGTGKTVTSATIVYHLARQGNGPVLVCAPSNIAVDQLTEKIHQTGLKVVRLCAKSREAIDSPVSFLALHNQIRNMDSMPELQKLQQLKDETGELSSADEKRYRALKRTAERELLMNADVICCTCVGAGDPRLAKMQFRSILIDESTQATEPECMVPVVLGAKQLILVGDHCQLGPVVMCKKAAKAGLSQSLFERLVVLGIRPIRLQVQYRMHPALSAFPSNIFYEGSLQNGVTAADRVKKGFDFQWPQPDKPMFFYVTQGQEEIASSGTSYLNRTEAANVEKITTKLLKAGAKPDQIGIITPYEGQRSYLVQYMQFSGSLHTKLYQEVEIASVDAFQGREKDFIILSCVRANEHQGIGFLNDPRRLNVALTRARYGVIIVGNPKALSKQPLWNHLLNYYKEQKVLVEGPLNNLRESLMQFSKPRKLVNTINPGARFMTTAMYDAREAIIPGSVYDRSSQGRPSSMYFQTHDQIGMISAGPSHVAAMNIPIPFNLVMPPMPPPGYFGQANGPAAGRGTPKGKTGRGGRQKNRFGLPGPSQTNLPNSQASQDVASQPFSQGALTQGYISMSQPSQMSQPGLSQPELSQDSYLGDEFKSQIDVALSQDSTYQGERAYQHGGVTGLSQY

[2] = biological target: T2, HA-BirA(R118G)-tagged SMG5, RNAi-resistant (UniProt Q9UPR3); experiment: as above
T2 sequence: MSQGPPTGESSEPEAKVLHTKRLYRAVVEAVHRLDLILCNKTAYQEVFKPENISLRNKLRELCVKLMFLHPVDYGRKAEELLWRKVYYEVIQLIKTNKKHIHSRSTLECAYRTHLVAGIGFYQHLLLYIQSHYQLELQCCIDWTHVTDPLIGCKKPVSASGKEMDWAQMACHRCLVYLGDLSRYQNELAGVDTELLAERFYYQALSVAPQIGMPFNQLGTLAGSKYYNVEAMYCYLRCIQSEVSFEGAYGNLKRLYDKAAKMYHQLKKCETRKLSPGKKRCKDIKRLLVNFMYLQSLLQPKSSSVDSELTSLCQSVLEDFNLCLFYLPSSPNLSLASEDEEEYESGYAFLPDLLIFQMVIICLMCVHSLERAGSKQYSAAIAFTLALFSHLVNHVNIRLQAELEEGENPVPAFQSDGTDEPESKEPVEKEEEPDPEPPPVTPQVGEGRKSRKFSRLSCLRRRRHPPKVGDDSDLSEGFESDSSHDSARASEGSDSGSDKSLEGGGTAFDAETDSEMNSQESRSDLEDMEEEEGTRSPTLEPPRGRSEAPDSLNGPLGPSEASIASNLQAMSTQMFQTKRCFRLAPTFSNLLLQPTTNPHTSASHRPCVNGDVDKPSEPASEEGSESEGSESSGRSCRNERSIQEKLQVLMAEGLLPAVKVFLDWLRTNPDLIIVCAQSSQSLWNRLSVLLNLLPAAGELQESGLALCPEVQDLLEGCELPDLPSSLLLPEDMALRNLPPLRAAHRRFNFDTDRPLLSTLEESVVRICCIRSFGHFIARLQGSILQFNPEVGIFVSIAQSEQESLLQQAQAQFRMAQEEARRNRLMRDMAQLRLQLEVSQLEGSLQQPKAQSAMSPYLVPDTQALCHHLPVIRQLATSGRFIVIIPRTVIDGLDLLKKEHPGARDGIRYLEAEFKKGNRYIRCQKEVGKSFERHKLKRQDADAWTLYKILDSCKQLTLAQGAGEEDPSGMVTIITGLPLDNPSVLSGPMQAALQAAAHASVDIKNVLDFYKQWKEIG

[3] = biological target: T1, HA-BirA(R118G)-tagged UPF1, RNAi-resistant; experiment: proximity labelling; BioID: HB*-bait transiently expressed in 293T cells, 50 μM biotin for 16 hours; streptavidin capture; LC-MS/MS; kept: at least two exclusive unique peptides and more than two times the normalized spectrum count of the free HB* control
[4] = biological target: T2, HA-BirA(R118G)-tagged SMG5, RNAi-resistant; experiment: as above
[5] = biological target: HA-BirA(R118G)-tagged UPF2, RNAi-resistant (UniProt Q9HAU5); experiment: as above
[6] = biological target: HA-BirA(R118G)-tagged UPF2, RNAi-resistant (UniProt Q9HAU5); experiment: proximity labelling; BioID: HB*-bait transiently expressed in 293T cells at near endogenous levels, 50 μM biotin for 16 hours; biotinylated proteins captured on magnetic streptavidin beads; western blot

binding [1]: binds weakly
binding [2]: binds
B1: SMG7 (protein, UniProt Q92540 1-1137)
chain: MSLQSAQYLRQAEVLKADMTDSKLGPAEVWTSRQALQDLYQKMLVTDLEYALDKKVEQDLWNHAFKNQITTLQGQAKNRANPNRSEVQANLSLFLEAASGFYTQLLQELCTVFNVDLPCRVKSSQLGIISNKQTHTSAIVKPQSSSCSYICQHCLVHLGDIARYRNQTSQAESYYRHAAQLVPSNGQPYNQLAILASSKGDHLTTIFYYCRSIAVKFPFPAASTNLQKALSKALESRDEVKTKWGVSDFIKAFIKFHGHVYLSKSLEKLSPLREKLEEQFKRLLFQKAFNSQQLVHVTVINLFQLHHLRDFSNETEQHTYSQDEQLCWTQLLALFMSFLGILCKCPLQNESQEESYNAYPLPAVKVSMDWLRLRPRVFQEAVVDERQYIWPWLISLLNSFHPHEEDLSSISATPLPEEFELQGFLALRPSFRNLDFSKGHQGITGDKEGQQRRIRQQRLISIGKWIADNQPRLIQCENEVGKLLFITEIPELILEDPSEAKENLILQETSVIESLAADGSPGLKSVLSTSRNLSNNCDTGEKPVVTFKENIKTREVNRDQGRSFPPKEVRRDYSKGITVTKNDGKKDNNKRKTETKKCTLEKLQETGKQNVAVQVKSQTELRKTPVSEARKTPVTQTPTQASNSQFIPIHHPGAFPPLPSRPGFPPPTYVIPPPVAFSMGSGYTFPAGVSVPGTFLQPTAHSPAGNQVQAGKQSHIPYSQQRPSGPGPMNQGPQQSQPPSQQPLTSLPAQPTAQSTSQLQVQALTQQQQSPTKAVPALGKSPPHHSGFQQYQQADASKQLWNPPQVQGPLGKIMPVKQPYYLQTQDPIKLFEPSLQPPVMQQQPLEKKMKPFPMEPYNHNPSEVKVPEFYWDSSYSMADNRSVMAQQANIDRRGKRSPGVFRPEQDPVPRMPFEKSLLEKPSELMSHSSSFLSLTGFSLNQERYPNNSMFNEVYGKNLTSSSKAELSPSMAPQETSLYSLFEGTPWSPSLPASSDHSTPASQSPHSSNPSSLPSSPPTHNHNSVPFSNFGPIGTPDNRDRRTADRWKTDKPAMGGFGIDYLSATSSSESSWHQASTPSGTWTGHGPSMEDSSAVLMESLKSIWSSSMMHPGPSALEQLLMQQKQKQQRGQGTMNPPH

binding [3]: no binding
binding [4]: binds
binding [5]: no binding
B2: EDC4 (protein, UniProt Q6P2E9 1-1401)
chain: MASCASIDIEDATQHLRDILKLDRPAGGPSAESPRPSSAYNGDLNGLLVPDPLCSGDSTSANKTGLRTMPPINLQEKQVICLSGDDSSTCIGILAKEVEIVASSDSSISSKARGSNKVKIQPVAKYDWEQKYYYGNLIAVSNSFLAYAIRAANNGSAMVRVISVSTSERTLLKGFTGSVADLAFAHLNSPQLACLDEAGNLFVWRLALVNGKIQEEILVHIRQPEGTPLNHFRRIIWCPFIPEESEDCCEESSPTVALLHEDRAEVWDLDMLRSSHSTWPVDVSQIKQGFIVVKGHSTCLSEGALSPDGTVLATASHDGYVKFWQIYIEGQDEPRCLHEWKPHDGRPLSCLLFCDNHKKQDPDVPFWRFLITGADQNRELKMWCTVSWTCLQTIRFSPDIFSSVSVPPSLKVCLDLSAEYLILSDVQRKVLYVMELLQNQEEGHACFSSISEFLLTHPVLSFGIQVVSRCRLRHTEVLPAEEENDSLGADGTHGAGAMESAAGVLIKLFCVHTKALQDVQIRFQPQLNPDVVAPLPTHTAHEDFTFGESRPELGSEGLGSAAHGSQPDLRRIVELPAPADFLSLSSETKPKLMTPDAFMTPSASLQQITASPSSSSSGSSSSSSSSSSSLTAVSAMSSTSAVDPSLTRPPEELTLSPKLQLDGSLTMSSSGSLQASPRGLLPGLLPAPADKLTPKGPGQVPTATSALSLELQEVEPLGLPQASPSRTRSPDVISSASTALSQDIPEIASEALSRGFGSSAPEGLEPDSMASAASALHLLSPRPRPGPELGPQLGLDGGPGDGDRHNTPSLLEAALTQEASTPDSQVWPTAPDITRETCSTLAESPRNGLQEKHKSLAFHRPPYHLLQQRDSQDASAEQSDHDDEVASLASASGGFGTKVPAPRLPAKDWKTKGSPRTSPKLKRKSKKDDGDAAMGSRLTEHQVAEPPEDWPALIWQQQRELAELRHSQEELLQRLCTQLEGLQSTVTGHVERALETRHEQEQRRLERALAEGQQRGGQLQEQLTQQLSQALSSAVAGRLERSIRDEIKKTVPPCVSRSLEPMAGQLSNSVATKLTAVEGSMKENISKLLKSKNLTDAIARAAADTLQGPMQAAYREAFQSVVLPAFEKSCQAMFQQINDSFRLGTQEYLQQLESHMKSRKAREQEAREPVLAQLRGLVSTLQSATEQMAATVAGSVRAEVQHQLHVAVGSLQESILAQVQRIVKGEVSVALKEQQAAVTSSIMQAMRSAAGTPVPSAHLDCQAQQAHILQLLQQGHLNQAFQQALTAADLNLVLYVCETVDPAQVFGQPPCPLSQPVLLSLIQQLASDLGTRTDLKLSYLEEAVMHLDHSDPITRDHMGSVMAQVRQKLFQFLQAEPHNSLGKAARRLSLMLHGLVTPSLP

binding [5]: binds
binding [6]: binds
B3: UPF3B (protein, UniProt Q9BZI7 1-483)
chain: MKEEKEHRPKEKRVTLLTPAGATGSGGGTSGDSSKGEDKQDRNKEKKEALSKVVIRRLPPTLTKEQLQEHLQPMPEHDYFEFFSNDTSLYPHMYARAYINFKNQEDIILFRDRFDGYVFLDNKGQEYPAIVEFAPFQKAAKKKTKKRDTKVGTIDDDPEYRKFLESYATDNEKMTSTPETLLEEIEAKNRELIAKKTTPLLSFLKNKQRMREEKREERRRREIERKRQREEERRKWKEEEKRKRKDIEKLKKIDRIPERDKLKDEPKIKVHRFLLQAVNQKNLLKKPEKGDEKELDKREKAKKLDKENLSDERASGQSCTLPKRSDSELKDEKPKRPEDESGRDYREREREYERDQERILRERERLKRQEEERRRQKERYEKEKTFKRKEEEMKKEKDTLRDKGKKAESTESIGSSEKTEKKEEVVKRDRIRNKDRPAMQLYQPGARSRNRLCPPDDSTKSGDSAAERKQESGISHRKEGGEE
